# Taken from: PubChem BioAssay AID602196 (INSERM, 2012)
# Test: 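Modifiers of cisplatin sensitivity in A549 cells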
# Cell system: human A549 lung cancer cells
# Reagent: siRNA pair against human genes
# Timing: 48 h transfection before cisplatin; time from cisplatin to read-out not stated
# Treatment: cisplatin at a dose killing half of control-siRNA cells; exact dose and duration not given
# Detection: 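Cisplatin cell death as a shift from the 50% death seen with control siRNA; siRNAs toxic or growth-blocking alone scored 0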
# Scale: two-siRNA summed score (-2 to +2): higher = both siRNAs protect from cisplatin killing; -2 means both sensitise; mean protection from cisplatin (shift in death) and protection from cisplatin (shift in death), siRNA C and protection from cisplatin (shift in death), siRNA D: higher = protection from cisplatin killing
# Active means: 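Each siRNA scores 0 if harmful alone by LDH or WST-1, otherwise +1 if it reduces and -1 if it increases cisplatin killing; a gene is active when both siRNAs agree (sum +2 or -2)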
# Meaning of the calls: active = both siRNAs shift cisplatin killing the same way; inactive = no consistent shift, or siRNA harmful alone
# This is one part, drawn at random, of about 23,000 reagents tested. Over the whole deposit, 455 (2%) are marked active. 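Active includes both protection and sensitisation; some change values fall well beyond the stated -50 to +50 range.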 Entries without a mark were called inactive. Reagents against one gene are numbered here. No sequences are given here. The record does not give: the amount of reagent.
Gene,reagent,two-siRNA summed score (-2 to +2),mean protection from cisplatin (shift in death) (%),"protection from cisplatin (shift in death), siRNA C (%)","protection from cisplatin (shift in death), siRNA D (%)"
ARL8A (GeneID 127829),1,1,10.1,1.3,18.8
CLASP1 (GeneID 23332),1,0,6,6.3,5.7
PYCR1 (GeneID 5831),1,0,18.9,31.3,6.4
SPAG1 (GeneID 6674),1,0,6.2,3.9,8.6
LINC00315 (GeneID 246704),1,0,28.8,36.1,21.4
AKNAD1 (GeneID 254268),1,0,2.7,-4,9.4
SYCP1 (GeneID 6847),1,0,7.3,4.7,9.9
PEX1 (GeneID 5189),1,-1,-9.7,-28.7,9.2
LOC441502,1,0,30.2,28.9,31.5
NAE1 (GeneID 8883),1,0,4.9,-6.6,16.4
NAE1 (GeneID 8883),2,0,6,-2,13.9
PIANP (GeneID 196500),1,-1,-5.2,-16.6,6.2
PLSCR4 (GeneID 57088),1,-1,-10.6,-1,-20.2
PNPLA2 (GeneID 57104),1,-1,-12,-8.3,-15.7
LOC442144,1,1,12.8,9.6,16
OR52N4 (GeneID 390072),1,1,11.8,10.1,13.5
GADD45G (GeneID 10912),1,0,7.6,10.1,5.1
NKX6-1 (GeneID 4825),1,0,2.5,16.5,-11.4
RIMOC1 (GeneID 285636),1,0,12.2,1.2,23.1
IL4 (GeneID 3565),1,0,-8.3,-7.2,-9.4
ERI3 (GeneID 79033),1,1,12.8,23.6,2
LOC441452,1,0,-9.5,-14.5,-4.4
OR7D2 (GeneID 162998),1,1,8.3,0.4,16.1

Part of the list above, reformatted:
{"Gene": "LOC441502", "reagent": 1, "two-siRNA summed score (-2 to +2)": 0, "mean protection from cisplatin (shift in death) (%)": 30.2, "protection from cisplatin (shift in death), siRNA C (%)": 28.9, "protection from cisplatin (shift in death), siRNA D (%)": 31.5}
{"Gene": "NAE1 (GeneID 8883)", "reagent": 1, "two-siRNA summed score (-2 to +2)": 0, "mean protection from cisplatin (shift in death) (%)": 4.9, "protection from cisplatin (shift in death), siRNA C (%)": -6.6, "protection from cisplatin (shift in death), siRNA D (%)": 16.4}
